# Results as given in article doi:10.1101/540781.
# Sequences of proteins named here, by UniProt entry; tags and fusion partners are left off. A change or cut given only in a name is not applied to a line headed by its entry.
# UniProt O14745: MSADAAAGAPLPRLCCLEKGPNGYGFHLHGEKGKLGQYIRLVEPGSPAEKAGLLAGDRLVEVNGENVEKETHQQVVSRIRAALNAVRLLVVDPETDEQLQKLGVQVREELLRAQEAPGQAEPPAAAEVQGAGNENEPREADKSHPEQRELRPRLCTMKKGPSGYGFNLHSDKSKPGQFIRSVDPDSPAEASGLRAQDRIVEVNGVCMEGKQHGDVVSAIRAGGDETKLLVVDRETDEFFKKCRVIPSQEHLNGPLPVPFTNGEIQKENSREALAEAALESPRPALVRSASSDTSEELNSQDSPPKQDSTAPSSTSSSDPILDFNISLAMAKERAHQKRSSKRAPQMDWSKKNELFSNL
# Target: NHERF1 S1 (GYGF core-binding motif mutated to GAGA in PDZ1) (human) (UniProt O14745)
# Assay: co-IP
binder,measurement,value
"FLAG-RGS14 (wild-type human regulator of G protein signaling 14) (protein, UniProt O43566 1-566) MPGKPKHLGVPNGRMVLAVSDGELSSTTGPQGQGEGRGSSLSIHSLPSGPSSPFPTEEQPVASWALSFERLLQDPLGLAYFTEFLKKEFSAENVTFWKACERFQQIPASDTQQLAQEARNIYQEFLSSQALSPVNIDRQAWLGEEVLAEPRPDMFRAQQLQIFNLMKFDSYARFVKSPLYRECLLAEAEGRPLREPGSSRLGSPDATRKKPKLKPGKSLPLGVEELGQLPPVEGPGGRPLRKSFRRELGGTANAALRRESQGSLNSSASLDLGFLAFVSSKSESHRKSLGSTEGESESRPGKYCCVYLPDGTASLALARPGLTIRDMLAGICEKRGLSLPDIKVYLVGNEQALVLDQDCTVLADQEVRLENRITFELELTALERVVRISAKPTKRLQEALQPILEKHGLSPLEVVLHRPGEKQPLDLGKLVSSVAAQRLVLDTLPGVKISKARDKSPCRSQGCPPRTQDKATHPPPASPSSLVKVPSSATGKRQTCDIEGLVELLNRVQSSGAHDQRGLLRKEDLVLPEFLQLPAQGPSSEETPPQTKSAAQPIGGSLNSTTDSAL",binding,binds

# These are yes or no findings as the source states them, for the method shown. In cells and extracts the contact can be indirect. Binding can be weak; no strength is given. Sequences can lack the tags named with a protein.
